No constants are given. Whether binding was seen depends on the method and setting. For some of these results: In cells and extracts the contact can be indirect. Some entries that bind do so weakly or less than the wild type. Where a sequence is shown, tags or fusion partners need not be part of it.

Chains of the proteins cited; added tags and fusions are not shown. Residues count along the entry.
UniProt P02787, residues 20-698: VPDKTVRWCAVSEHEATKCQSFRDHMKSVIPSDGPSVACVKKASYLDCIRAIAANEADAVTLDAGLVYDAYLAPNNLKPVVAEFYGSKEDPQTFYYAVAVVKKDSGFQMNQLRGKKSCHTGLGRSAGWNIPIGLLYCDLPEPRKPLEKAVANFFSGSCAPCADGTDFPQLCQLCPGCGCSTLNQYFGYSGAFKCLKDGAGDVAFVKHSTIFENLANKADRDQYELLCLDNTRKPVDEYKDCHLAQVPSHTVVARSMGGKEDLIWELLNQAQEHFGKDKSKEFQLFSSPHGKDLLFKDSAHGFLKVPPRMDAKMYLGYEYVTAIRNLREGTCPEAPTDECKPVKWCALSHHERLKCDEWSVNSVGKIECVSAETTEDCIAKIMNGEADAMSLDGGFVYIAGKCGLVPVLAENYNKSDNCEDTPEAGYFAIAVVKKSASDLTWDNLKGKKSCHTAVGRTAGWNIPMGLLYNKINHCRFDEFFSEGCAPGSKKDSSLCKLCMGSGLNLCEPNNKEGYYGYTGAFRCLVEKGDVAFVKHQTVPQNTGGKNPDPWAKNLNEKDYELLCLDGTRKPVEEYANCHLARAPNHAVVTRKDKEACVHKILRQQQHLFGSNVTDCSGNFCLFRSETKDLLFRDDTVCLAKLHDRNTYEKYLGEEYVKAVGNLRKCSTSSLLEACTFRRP

Assay [1] deals with T1, M. catarrhalis transferrin binding protein B with C-terminal flag-tag (Mcat TbpB-flag) (Moraxella catarrhalis) (UniProt P0DTW7).
T1 sequence (chain, lipidated): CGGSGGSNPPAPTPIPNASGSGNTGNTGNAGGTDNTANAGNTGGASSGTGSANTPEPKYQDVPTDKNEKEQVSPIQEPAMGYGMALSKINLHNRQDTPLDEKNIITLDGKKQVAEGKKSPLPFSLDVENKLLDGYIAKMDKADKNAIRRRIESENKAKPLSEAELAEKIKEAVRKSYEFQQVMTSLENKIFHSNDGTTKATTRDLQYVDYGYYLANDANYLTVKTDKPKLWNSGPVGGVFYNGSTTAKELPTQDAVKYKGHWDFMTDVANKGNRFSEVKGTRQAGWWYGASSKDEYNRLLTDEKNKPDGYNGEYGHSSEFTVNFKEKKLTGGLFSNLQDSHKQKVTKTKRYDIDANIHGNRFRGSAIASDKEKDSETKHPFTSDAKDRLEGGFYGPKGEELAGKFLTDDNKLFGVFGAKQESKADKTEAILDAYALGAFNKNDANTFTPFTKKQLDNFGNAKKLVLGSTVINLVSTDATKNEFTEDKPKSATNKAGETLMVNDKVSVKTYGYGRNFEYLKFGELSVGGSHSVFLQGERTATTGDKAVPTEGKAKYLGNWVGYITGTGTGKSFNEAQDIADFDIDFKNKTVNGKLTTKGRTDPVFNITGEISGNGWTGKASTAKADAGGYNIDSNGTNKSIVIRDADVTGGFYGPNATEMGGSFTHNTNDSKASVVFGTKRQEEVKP
Briefly: far-Western, overlay or dot blot.

Assay [2] addresses T1, M. catarrhalis transferrin binding protein B with C-terminal flag-tag (Mcat TbpB-flag) (Moraxella catarrhalis). The experiment in a line: pull-down.
Assay [3] has as its target T2, His-tagged E. coli Skp, purified (E. coli) (UniProt P0AEU7).
T2 sequence: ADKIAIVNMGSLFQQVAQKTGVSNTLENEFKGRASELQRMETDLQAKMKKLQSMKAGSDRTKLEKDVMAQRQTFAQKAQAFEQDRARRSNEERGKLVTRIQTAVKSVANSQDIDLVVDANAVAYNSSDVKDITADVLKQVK
The experiment in a line: pull-down.

Take “Biotinylated human transferrin (from UniProt P02787 20-698)”: in assay [1], the binding result was “binds”.

B1: Periplasmic chaperone Skp of E. coli, endogenous (protein, UniProt P0AEU7 21-161)
chain: ADKIAIVNMGSLFQQVAQKTGVSNTLENEFKGRASELQRMETDLQAKMKKLQSMKAGSDRTKLEKDVMAQRQTFAQKAQAFEQDRARRSNEERGKLVTRIQTAVKSVANSQDIDLVVDANAVAYNSSDVKDITADVLKQVK
In the case of B1, in assay [2], the binding entry was “binds”.

B2: M. catarrhalis transferrin binding protein B with C-terminal flag-tag (Mcat TbpB-flag) (protein, UniProt P0DTW7 21-706)
chain: CGGSGGSNPPAPTPIPNASGSGNTGNTGNAGGTDNTANAGNTGGASSGTGSANTPEPKYQDVPTDKNEKEQVSPIQEPAMGYGMALSKINLHNRQDTPLDEKNIITLDGKKQVAEGKKSPLPFSLDVENKLLDGYIAKMDKADKNAIRRRIESENKAKPLSEAELAEKIKEAVRKSYEFQQVMTSLENKIFHSNDGTTKATTRDLQYVDYGYYLANDANYLTVKTDKPKLWNSGPVGGVFYNGSTTAKELPTQDAVKYKGHWDFMTDVANKGNRFSEVKGTRQAGWWYGASSKDEYNRLLTDEKNKPDGYNGEYGHSSEFTVNFKEKKLTGGLFSNLQDSHKQKVTKTKRYDIDANIHGNRFRGSAIASDKEKDSETKHPFTSDAKDRLEGGFYGPKGEELAGKFLTDDNKLFGVFGAKQESKADKTEAILDAYALGAFNKNDANTFTPFTKKQLDNFGNAKKLVLGSTVINLVSTDATKNEFTEDKPKSATNKAGETLMVNDKVSVKTYGYGRNFEYLKFGELSVGGSHSVFLQGERTATTGDKAVPTEGKAKYLGNWVGYITGTGTGKSFNEAQDIADFDIDFKNKTVNGKLTTKGRTDPVFNITGEISGNGWTGKASTAKADAGGYNIDSNGTNKSIVIRDADVTGGFYGPNATEMGGSFTHNTNDSKASVVFGTKRQEEVKP
modifications: lipidated
As for B2, the binding result in assay [3] was “binds”.

B3: His-tagged E. coli LolA, purified (protein, UniProt P61316 22-203)
chain: DAASDLKSRLDKVSSFHASFTQKVTDGSGAAVQEGQGDLWVKRPNLFNWHMTQPDESILVSDGKTLWFYNPFVEQATATWLKDATGNTPFMLIARNQSSDWQQYNIKQNGDDFVLTPKASNGNLKQFTINVGRDGTIHQFSAVEQDDQRSSYQLKSQQNGAVDAAKFTFTPPQGVTVDDQRK
For the molecule B3, the binding result in assay [2] is listed as “binds”.
